T1: GCN4-mDHFRmt_B
T1 chain: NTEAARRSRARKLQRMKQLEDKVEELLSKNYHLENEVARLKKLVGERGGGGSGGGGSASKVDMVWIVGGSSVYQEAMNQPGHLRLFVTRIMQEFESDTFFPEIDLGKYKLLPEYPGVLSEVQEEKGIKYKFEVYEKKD

T2: GCN4-mDHFRmt_B-2A
T2 chain: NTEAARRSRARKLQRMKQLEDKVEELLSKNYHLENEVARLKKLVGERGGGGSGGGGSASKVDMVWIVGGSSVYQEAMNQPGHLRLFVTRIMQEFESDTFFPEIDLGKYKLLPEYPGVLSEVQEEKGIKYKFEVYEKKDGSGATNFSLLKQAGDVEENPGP

B1: GCN4-mDHFRmt_A (other)
chain: NTEAARRSRARKLQRMKQLEDKVEELLSKNYHLENEVARLKKLVGERGGGGSGGGGSMVRPLNCIVAVSQNMGIGKNGDFPWPPLRNESKYFQRMTTTSSVEGKQNLVIMGRKTWFSIPEKNRPLKDRINIVLSRELKEPPRGAHFLAKSLDDALRLIEQPEL
B2: GCN4-mDHFRmt_A-2A (other)
chain: NTEAARRSRARKLQRMKQLEDKVEELLSKNYHLENEVARLKKLVGERGGGGSGGGGSMVRPLNCIVAVSQNMGIGKNGDFPWPPLRNESKYFQRMTTTSSVEGKQNLVIMGRKTWFSIPEKNRPLKDRINIVLSRELKEPPRGAHFLAKSLDDALRLIEQPELGSGATNFSLLKQAGDVEENPGP

What was measured:
GCN4-mDHFRmt_B = target: T1, GCN4-mDHFRmt_B; experiment: cell-based or functional assay
GCN4-mDHFRmt_B-2A = target: T2, GCN4-mDHFRmt_B-2A; experiment: cell-based or functional assay

| Binder | fold enrichment of double transduced T cells (FACS), BC45, 25 nM MTX 4 days (GCN4-mDHFRmt_B) [fold] | fold enrichment of double transduced T cells (FACS), BC45, 50 nM MTX 4 days (GCN4-mDHFRmt_B) [fold] | fold enrichment of double transduced T cells (FACS), BC45, further 100 nM MTX 3 days, row 2 (GCN4-mDHFRmt_B) [fold] | fold enrichment of double transduced T cells (FACS), BC45, further 100 nM MTX 3 days, row 3 (GCN4-mDHFRmt_B) [fold] | fold enrichment of double transduced T cells (FACS), BC46, 25 nM MTX 4 days (GCN4-mDHFRmt_B) [fold] | fold enrichment of double transduced T cells (FACS), BC46, 50 nM MTX 4 days (GCN4-mDHFRmt_B) [fold] | fold enrichment of double transduced T cells (FACS), BC46, further 100 nM MTX 3 days, row 2 (GCN4-mDHFRmt_B) [fold] | fold enrichment of double transduced T cells (FACS), BC46, further 100 nM MTX 3 days, row 3 (GCN4-mDHFRmt_B) [fold] | fold enrichment of double transduced T cells (FACS), BC45, 50 nM MTX 4 days (GCN4-mDHFRmt_B-2A) [fold] | fold enrichment of double transduced T cells (FACS), BC45, further 100 nM MTX 3 days, row 2 (GCN4-mDHFRmt_B-2A) [fold] | fold enrichment of double transduced T cells (FACS), BC45, further 100 nM MTX 3 days, row 3 (GCN4-mDHFRmt_B-2A) [fold] | fold enrichment of double transduced T cells (FACS), BC46, 50 nM MTX 4 days (GCN4-mDHFRmt_B-2A) [fold] | fold enrichment of double transduced T cells (FACS), BC46, further 100 nM MTX 3 days, row 2 (GCN4-mDHFRmt_B-2A) [fold] | fold enrichment of double transduced T cells (FACS), BC46, further 100 nM MTX 3 days, row 3 (GCN4-mDHFRmt_B-2A) [fold] |
| --- | --- | --- | --- | --- | --- | --- | --- | --- | --- | --- | --- | --- | --- | --- |
| B1 | 3.7 | 6.1 | 8.4 | 9.7 | 2.9 | 5.2 | 6 | 8.1 |  |  |  |  |  |  |
| B2 |  |  |  |  |  |  |  |  | 12 | 29 | 138 | 5.9 | 5.7 | 26.1 |

Source: patent US20220041999A1 (NEOGENE THERAPEUTICS B V, published 2022)
